For experiment [1], the target named is P140–P110 heterodimer of the extracellular regions (P140 residues 23–1351 and P110 residues 23–938) (Mycoplasma genitalium (strain G37)) (UniProt P20796). The experiment is described as follows: SEC-MALS; Superdex 200 increase 10/300 GL, 50 mM Tris pH 7.4, 150 mM NaCl; 150 µl of P140, P110 and P140–P110 at 0.6, 2 and 0.5 mg/ml; both purified. (In general: SEC sorts molecules by how far they enter the pores of the column.)

The target of experiment [2] is P140–P110 heterodimer of the in situ Nap complex (Mycoplasma genitalium G37 (endogenous)) (UniProt P20796). The experiment can be described thus: cryo-electron tomography with sub-tomogram averaging; in situ Nap on mildly lysed M. genitalium G37 ghost cells; 15 Å; rigid-body fitting of P110 alone and P140 alone; open conformation.
Experiment [3] addresses T1, full-length P140 (Mycoplasma genitalium G37 (endogenous)) (UniProt P20796).
T1 sequence: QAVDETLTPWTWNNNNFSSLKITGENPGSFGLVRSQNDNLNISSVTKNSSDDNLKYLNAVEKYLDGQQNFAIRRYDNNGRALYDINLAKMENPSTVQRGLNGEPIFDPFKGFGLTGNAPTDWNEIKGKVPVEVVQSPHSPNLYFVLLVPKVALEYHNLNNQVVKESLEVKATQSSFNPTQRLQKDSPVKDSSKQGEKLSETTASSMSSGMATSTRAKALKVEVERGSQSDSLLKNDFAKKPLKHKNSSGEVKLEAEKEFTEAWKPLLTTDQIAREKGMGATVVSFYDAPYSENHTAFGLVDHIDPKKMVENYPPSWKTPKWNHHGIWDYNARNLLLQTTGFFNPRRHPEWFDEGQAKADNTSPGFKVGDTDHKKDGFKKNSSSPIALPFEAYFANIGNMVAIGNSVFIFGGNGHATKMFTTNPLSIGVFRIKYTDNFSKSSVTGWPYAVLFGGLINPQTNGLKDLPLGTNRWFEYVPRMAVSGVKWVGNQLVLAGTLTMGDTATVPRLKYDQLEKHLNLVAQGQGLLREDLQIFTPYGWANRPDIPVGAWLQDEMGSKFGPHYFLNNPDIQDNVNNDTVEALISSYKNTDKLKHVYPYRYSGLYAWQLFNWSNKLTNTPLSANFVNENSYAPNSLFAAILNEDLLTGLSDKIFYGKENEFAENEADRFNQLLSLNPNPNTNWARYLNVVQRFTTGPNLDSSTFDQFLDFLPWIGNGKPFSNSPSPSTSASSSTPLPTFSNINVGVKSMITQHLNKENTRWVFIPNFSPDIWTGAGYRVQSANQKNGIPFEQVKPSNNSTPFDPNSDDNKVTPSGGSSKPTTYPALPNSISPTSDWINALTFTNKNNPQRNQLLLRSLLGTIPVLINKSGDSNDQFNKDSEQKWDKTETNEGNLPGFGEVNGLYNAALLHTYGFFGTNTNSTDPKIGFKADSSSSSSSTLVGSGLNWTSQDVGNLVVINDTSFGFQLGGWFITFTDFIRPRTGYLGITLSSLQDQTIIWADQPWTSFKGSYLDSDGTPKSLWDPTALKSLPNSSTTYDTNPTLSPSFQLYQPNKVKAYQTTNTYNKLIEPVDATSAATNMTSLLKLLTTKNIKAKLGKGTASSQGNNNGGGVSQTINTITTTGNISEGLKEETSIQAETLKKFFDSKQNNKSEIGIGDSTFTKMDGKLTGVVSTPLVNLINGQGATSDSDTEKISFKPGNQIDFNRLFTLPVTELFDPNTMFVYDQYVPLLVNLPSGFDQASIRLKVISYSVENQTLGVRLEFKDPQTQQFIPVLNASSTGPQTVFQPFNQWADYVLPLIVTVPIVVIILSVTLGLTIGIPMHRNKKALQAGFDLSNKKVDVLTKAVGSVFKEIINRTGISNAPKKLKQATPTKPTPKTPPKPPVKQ
The experiment can be described thus: cryo-EM structure; single-particle cryo-EM of the Nap complex purified from the M. genitalium P110His strain in octylglucoside, 25 μg/ml; 9.8 Å; rigid-body fitting of P140 alone and P110 alone; closed conformation; both purified.

Experiment [4] concerns the target T1, full-length P140 (Mycoplasma genitalium G37 (endogenous)). The experiment is described as follows: cryo-electron tomography with sub-tomogram averaging; in situ Nap on mildly lysed M. genitalium G37 ghost cells; 15 Å; rigid-body fitting of P110 alone and P140 alone; open conformation.

These are yes or no findings as the source states them, for the method shown. Some results given as binding are weak or reduced against the parent protein; the word gives no strength. For some of these results: Where a sequence is shown, tags or fusion partners need not be part of it.

For “P140–P110 heterodimer of the extracellular regions (P140 residues 23–1351 and P110 residues 23–938) (from UniProt P20796 23-1351; P22747 23-938) (complex)”, in experiment [1], the binding result was “no binding (tested: 0.5 mg/ml)”.

For “P140–P110 heterodimer of the in situ Nap complex (from UniProt P20796 59-1444; P22747 26-1053)”, the binding result in experiment [2] is reported as “binds”.

B1: full-length P110 with a 6xHistag insertion (P110His strain) (protein, UniProt P22747 26-1053)
chain: NTFLVKEDSKNVTAYTPFATPITDSKSDLVSLAQLDSSYQIADQTIHNTNLFVLFKSRDVKVKYESSGSNNISFDSTSQGEKPSYVVEFTNSTNIGIKWTMVKKYQLDVPNVSSDMNQVLKNLILEQPLTKYTLNSSLAKEKGKTQREVHLGSGQANQWTSQRNQHDLNNNPSPNASTGFKLTTGNAYRKLSESWPIYEPIDGTKQGKGKDSSGWSSTEENEAKNDAPSVSGGGSSSGTFNKYLNTKQALESIGILFDDQTPRNVITQLYYASTSKLAVTNNHIVVMGNSFLPSMWYWVVERSAQENASNKPTWFANTNLDWGEDKQKQFVENQLGYKETTSTNSHNFHSKSFTQPAYLISGIDSVNDQIIFSGFKAGSVGYDSSSSSSSSSSSSTKDQALAWSTTTSLDSKTGYKDLVTNDTGLNGPINGSFSIQDTFSFVVPYSGNHTNNGTTGPIKTAYPVKKDQKSTVKINSLINATPLNSYGDEGIGVFDALGLNYNFKSNQERLPSRTDQIFVYGIVSPNELRSAKSSADSTGSDTKVNWSNTQSRYLPVPYNYSEGIIDADGFKRPENRGASVTTFSGLKSIAPDGFANSIANFSVGLKAGIDPNPVMSGKKANYGAVVLTRGGVVRLNFNPGNDSLLSTTDNNIAPISFSFTPFTAAESAVDLTTFKEVTYNQESGLWSYIFDSSLKPSHDGKQTPVTDNMGFSVITVSRTGIELNQDQATTTLDVAPSALAVQSGIQSTTQTLTGVLPLSEEFSAVIAKDSDQNKIDIYKNNNGLFEIDTQLSNSVATNNGGLAPSYTENRVDAWGKVEFADNSVLQARNLVDKTVDEIINTPEILNSFFRFTPAFEDQKATLVATKQSDTSLSVSPRIQFLDGNFYDLNSTIAGVPLNIGFPSRVFAGFAALPAWVIPVSVGSSVGILFILLVLGLGIGIPMYRVRKLQDASFVNVFKKVDTLTTAVGSVYKKIITQTGVVKKAPSALKAANPSVKKPAAFLKPPVQPPSKPEGEQKAVEVKSEETKS
B1: the binding result in experiment [3] was “binds”.

B2: P110 in situ on M. genitalium G37 cells (protein, UniProt P22747 26-1053)
chain: NTFLVKEDSKNVTAYTPFATPITDSKSDLVSLAQLDSSYQIADQTIHNTNLFVLFKSRDVKVKYESSGSNNISFDSTSQGEKPSYVVEFTNSTNIGIKWTMVKKYQLDVPNVSSDMNQVLKNLILEQPLTKYTLNSSLAKEKGKTQREVHLGSGQANQWTSQRNQHDLNNNPSPNASTGFKLTTGNAYRKLSESWPIYEPIDGTKQGKGKDSSGWSSTEENEAKNDAPSVSGGGSSSGTFNKYLNTKQALESIGILFDDQTPRNVITQLYYASTSKLAVTNNHIVVMGNSFLPSMWYWVVERSAQENASNKPTWFANTNLDWGEDKQKQFVENQLGYKETTSTNSHNFHSKSFTQPAYLISGIDSVNDQIIFSGFKAGSVGYDSSSSSSSSSSSSTKDQALAWSTTTSLDSKTGYKDLVTNDTGLNGPINGSFSIQDTFSFVVPYSGNHTNNGTTGPIKTAYPVKKDQKSTVKINSLINATPLNSYGDEGIGVFDALGLNYNFKSNQERLPSRTDQIFVYGIVSPNELRSAKSSADSTGSDTKVNWSNTQSRYLPVPYNYSEGIIDADGFKRPENRGASVTTFSGLKSIAPDGFANSIANFSVGLKAGIDPNPVMSGKKANYGAVVLTRGGVVRLNFNPGNDSLLSTTDNNIAPISFSFTPFTAAESAVDLTTFKEVTYNQESGLWSYIFDSSLKPSHDGKQTPVTDNMGFSVITVSRTGIELNQDQATTTLDVAPSALAVQSGIQSTTQTLTGVLPLSEEFSAVIAKDSDQNKIDIYKNNNGLFEIDTQLSNSVATNNGGLAPSYTENRVDAWGKVEFADNSVLQARNLVDKTVDEIINTPEILNSFFRFTPAFEDQKATLVATKQSDTSLSVSPRIQFLDGNFYDLNSTIAGVPLNIGFPSRVFAGFAALPAWVIPVSVGSSVGILFILLVLGLGIGIPMYRVRKLQDASFVNVFKKVDTLTTAVGSVYKKIITQTGVVKKAPSALKAANPSVKKPAAFLKPPVQPPSKPEGEQKAVEVKSEETKS
B2: in experiment [4], the binding result is recorded as “binds”.

Source of the values: article PMC7280502, “Structure and mechanism of the Nap adhesion complex from the human pathogen Mycoplasma genitalium” (Nature Communications, 2020).
